Source: PubChem BioAssay AID652243 (Drosophila RNAi Screening Center, 2013)
The screen tested about 24,000 reagents; shown is an unselected part of those with a known target gene and a result. Over the whole deposit, 246 (1%) are marked active. 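Plates not normalised; calls are printed but the firefly/Renilla ratio behind them is not deposited; fold cut for lowering reported inconsistently.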 Raw values vary from plate to plate and are shown uncorrected. The numbers tell different reagents against one gene apart. A plus sign joins genes that one reagent is predicted to hit. No sequences are given here. Not stated in the record: the amount of reagent.

Aim: 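Fly genes required for human androgen receptor driven transcription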 (primary screen)
Cell system: Drosophila S2R+ cells
Reagent: long dsRNA against Drosophila genes
Timing: 72 h (48 h, then 24 h hormone)
Conditions: synthetic androgen R1881 at 10 nM for 24 h
Detection: 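Per-well raw luminescence of the androgen-driven firefly reporter and of the Renilla control, two replicates each, without normalisation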
Direction: firefly reporter light: higher = more light from androgen-responsive reporter; Renilla control light: higher = more constitutive control signal (cell number, transfection)
Call rule: 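Hit when the log firefly-to-Renilla ratio dropped or increased by a fixed fold versus the mean of GFP or LacZ controls across duplicate plates; lowering cut given as 1.5 and as 3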
Meaning of the calls: active = hit: reporter lowered or raised; inactive = no hit

predicted target,dsRNA no.,"firefly reporter light, replicate 1","firefly reporter light, replicate 2","Renilla control light, replicate 1","Renilla control light, replicate 2",activity call
NimC1 (GeneID 34816),1,1.21e5,1.61e5,1.07e6,1.27e6,inactive
ergic53 (GeneID 44679),1,1.70e5,2.14e5,3.09e6,2.32e6,inactive
beta3GalTII (GeneID 35848),1,2.86e5,3.78e5,1.23e6,1.34e6,inactive
beta3GalTII (GeneID 35848),2,9.74e5,9.58e5,1.75e6,1.50e6,inactive
Antdh (GeneID 32058),1,5.30e5,3.91e5,3.19e6,3.52e6,inactive
Antdh (GeneID 32058),2,7.89e5,1.12e6,1.02e6,1.19e6,inactive
Gip (GeneID 31960),1,4.25e5,5.75e5,2.26e6,3.13e6,inactive
dpr20 (GeneID 38101),1,8.20e5,7.73e5,1.45e6,1.41e6,inactive
CG15710 (GeneID 36832),1,63319,80104,1.33e6,1.33e6,inactive
Syb (GeneID 36080),1,7.65e5,6.00e5,2.01e6,1.95e6,inactive
Syb (GeneID 36080),2,4.42e5,3.72e5,1.16e6,9.98e5,inactive
Liprin-beta (GeneID 39524),1,1.47e5,68858,1.56e6,1.03e6,inactive
Liprin-beta (GeneID 39524),2,6.98e5,7.90e5,1.18e6,1.10e6,inactive
Liprin-beta (GeneID 39524),3,5.28e5,5.52e5,1.08e6,1.06e6,inactive
CG14423 (GeneID 31287),1,3.35e5,3.26e5,1.98e6,1.66e6,inactive
CG14423 (GeneID 31287),2,7.56e5,8.15e5,8.99e5,7.93e5,inactive
CG4613 (GeneID 39586),1,2.01e5,2.19e5,1.62e6,1.37e6,inactive
CG4613 (GeneID 39586),2,9.98e5,1.12e6,1.20e6,1.40e6,inactive
mil (GeneID 43343),1,2.15e5,2.06e5,3.12e6,3.61e6,inactive
CG11076 (GeneID 43830),1,2.89e5,2.91e5,2.65e6,1.66e6,inactive
CG14313 (GeneID 42176),1,62042,51490,1.05e6,1.12e6,inactive
isoQC (GeneID 40270),1,2.16e5,1.43e5,1.05e6,1.35e6,inactive
isoQC (GeneID 40270),2,4.68e5,3.90e5,7.34e5,1.11e6,inactive

Next part, starting with the last 5 of the part before.
predicted target,dsRNA no.,"firefly reporter light, replicate 1","firefly reporter light, replicate 2","Renilla control light, replicate 1","Renilla control light, replicate 2",activity call
mil (GeneID 43343),1,2.15e5,2.06e5,3.12e6,3.61e6,inactive
CG11076 (GeneID 43830),1,2.89e5,2.91e5,2.65e6,1.66e6,inactive
CG14313 (GeneID 42176),1,62042,51490,1.05e6,1.12e6,inactive
isoQC (GeneID 40270),1,2.16e5,1.43e5,1.05e6,1.35e6,inactive
isoQC (GeneID 40270),2,4.68e5,3.90e5,7.34e5,1.11e6,inactive
abs (GeneID 40530),1,70786,54497,3.65e5,2.40e5,inactive
Adat1 (GeneID 34787),1,2.57e5,2.05e5,1.61e6,1.70e6,inactive
Adat1 (GeneID 34787),2,2.29e5,2.28e5,5.13e5,6.33e5,inactive
sif (GeneID 43892),1,1.32e5,1.42e5,2.45e5,3.00e5,inactive
sif (GeneID 43892),2,3.24e5,2.23e5,3.64e6,3.56e6,inactive
sif (GeneID 43892),3,7.98e5,6.25e5,2.43e6,2.11e6,inactive
sif (GeneID 43892),4,4.01e5,1.20e6,7.26e5,9.85e5,inactive
sif (GeneID 43892),5,5.46e5,5.71e5,5.31e5,5.40e5,inactive
CG2991 (GeneID 33488),1,7.30e5,6.72e5,1.32e6,1.04e6,inactive
CG2991 (GeneID 33488),2,2.27e5,2.80e5,6.08e5,6.14e5,inactive
CG42304 + Snup,1,6.43e5,5.88e5,1.89e6,1.84e6,inactive
CG42304 + Snup,2,26082,15546,4.96e5,4.09e5,active
CG42304 + Snup,3,1.34e5,2.85e5,9.21e5,1.10e6,active
CG42304 + Snup,4,1.20e6,1.29e6,7.66e5,9.35e5,inactive
CG42304 + Snup,5,4.05e5,3.29e5,1.29e6,1.52e6,inactive
sff (GeneID 39732),1,55544,68402,8.79e5,5.58e5,inactive
sff (GeneID 39732),2,,,,,inactive
sff (GeneID 39732),3,,,,,inactive
CG4287 (GeneID 41939),1,77593,1.16e5,6.06e5,5.98e5,inactive
CG4287 (GeneID 41939),2,5.01e5,4.86e5,7.91e5,5.80e5,inactive
par-6 (GeneID 32752),1,91525,94084,5.78e5,6.93e5,inactive
par-6 (GeneID 32752),2,7.46e5,5.99e5,1.84e6,1.58e6,inactive
Acbp2 (GeneID 38784),1,2.90e5,2.44e5,4.02e6,3.42e6,inactive
Acbp2 (GeneID 38784),2,4.69e5,2.29e5,3.28e5,3.38e5,inactive
CR15280 (GeneID 3885605),1,1.42e5,1.66e5,1.29e6,1.58e6,inactive
CR15280 (GeneID 3885605),2,9.73e5,1.00e6,8.35e5,7.71e5,inactive
GluRIIE (GeneID 318623),1,2.42e5,76972,2.14e5,73797,inactive
GluRIIE (GeneID 318623),2,6.69e5,6.08e5,8.64e5,8.75e5,inactive
GluRIIE (GeneID 318623),3,2.90e5,2.59e5,1.04e6,1.14e6,inactive
Lint-O (GeneID 31254),1,1.19e5,1.66e5,3.43e6,3.23e6,inactive
Lint-O (GeneID 31254),2,6.85e5,5.08e5,6.06e5,5.55e5,inactive
t-Grip91 (GeneID 34931),1,2.28e5,2.79e5,6.24e5,4.40e5,inactive
SppL (GeneID 43128),1,1.16e5,1.26e5,1.91e6,2.03e6,inactive
EndoU + CR31292,1,2.62e5,1.77e5,5.98e5,5.45e5,inactive
Herp (GeneID 34065),1,1.17e6,1.21e6,1.89e6,1.63e6,inactive
Herp (GeneID 34065),2,4.83e5,4.52e5,8.04e5,4.68e5,inactive
